Assay results reported in US10954262B2, “Tunicamycin analogues” (Oxford University Innovation Limited, priority 2017, dated 2021).

Test system: Bacillus subtilis (EC1524)
Type: cell-based
Conditions: B. subtilis; minimal lethal dose / MIC; 800 μg/mL used when no cytotoxicity at 400 μg/mL

Row | Compound | RTI (Relative Therapeutic Index)
1 | CC(C)=CCC[C@H](C)CC(=O)NC1C(OC2OC(C[C@@H](O)[C@H]3O[C@@H](n4ccc(=O)[nH]c4=O)[C@H](O)[C@@H]3O)C(O)C(O)[C@H]2NC(=O)C[C@@H](C)CCC=C(C)C)OC(CO)[C@@H](O)C1O (some centres unmarked) [Compound E1, Di-N-citronoyl-tunicamycin] | 128
2 | CCCCCCC(=O)NC1C(OC2OC(C[C@@H](O)[C@H]3O[C@@H](n4ccc(=O)[nH]c4=O)[C@H](O)[C@@H]3O)C(O)C(O)[C@H]2NC(=O)CCCCCC)OC(CO)[C@@H](O)C1O (some centres unmarked) [Compound E2, Di-N-heptanoyl tunicamycin] | 128
3 | CCCCCCCC(=O)NC1C(OC2OC(C[C@@H](O)[C@H]3O[C@@H](n4ccc(=O)[nH]c4=O)[C@H](O)[C@@H]3O)C(O)C(O)[C@H]2NC(=O)CCCCCCC)OC(CO)[C@@H](O)C1O (some centres unmarked) [Compound E3, Di-N-octanoyl-tunicamycin] | 1026
4 | CCCCCCCCC(=O)NC1C(OC2OC(C[C@@H](O)[C@H]3O[C@@H](n4ccc(=O)[nH]c4=O)[C@H](O)[C@@H]3O)C(O)C(O)[C@H]2NC(=O)CCCCCCCC)OC(CO)[C@@H](O)C1O (some centres unmarked) [Compound E4, Di-N-nonanoyl-tunicamycin] | 33333
5 | CCCCCCCCCC(=O)NC1C(OC2OC(C[C@@H](O)[C@H]3O[C@@H](n4ccc(=O)[nH]c4=O)[C@H](O)[C@@H]3O)C(O)C(O)[C@H]2NC(=O)CCCCCCCCC)OC(CO)[C@@H](O)C1O (some centres unmarked) [Compound E5, Di-N-decanoyl-tunicamycin] | 2051
6 | CCCCCCCCCCC(=O)NC1C(OC2OC(C[C@@H](O)[C@H]3O[C@@H](n4ccc(=O)[nH]c4=O)[C@H](O)[C@@H]3O)C(O)C(O)[C@H]2NC(=O)CCCCCCCCCC)OC(CO)[C@@H](O)C1O (some centres unmarked) [Compound E6, Di-N-undecanoyl-tunicamycin] | 513
7 | CCCCCCCCCCCC(=O)NC1C(OC2OC(C[C@@H](O)[C@H]3O[C@@H](n4ccc(=O)[nH]c4=O)[C@H](O)[C@@H]3O)C(O)C(O)[C@H]2NC(=O)CCCCCCCCCCC)OC(CO)[C@@H](O)C1O (some centres unmarked) [Compound E7, Di-N-dodecanoyl-tunicamycin] | 8
8 | NC1C(O)[C@H](O)C(CO)O[C@@H]1OC1O[C@H](C[C@@H](O)[C@@H]2O[C@@H](n3ccc(=O)[nH]c3=O)[C@H](O)[C@@H]2O)C(O)C(O)[C@H]1N (stereo partly drawn) [D, α-D-glucosamine-(1″-11′)-tunicamyl Uracil Dihydrochloride] | 8

Counter-ions that a name gives are not always drawn.
